Data as given in patent US9809627B2 (Wisconsin Alumni Research Foundation, priority 2014, dated 2017).

Assay: general procedure: Fmoc solid-phase peptide synthesis; Fmoc-PAL-PEG-PS (Applied Biosystems); PyBOP (on-resin cyclization)
Conditions: cyclisation step

Substance	outcome	cyclisation yield (estimated from HPLC peak area)
SKVVT^DPGRYTIAALLSPYSYSQ	cyclization failed, and a side product with mass 53 amu higher than the starting peptide was produced	–
SKVVT^DPPRYTIAALLSPYSYSQ [CG3] (chain 1 SKVVTPPRYTIAALLSPYSYSQ; chain 2 SKVVTPPRYTIAALLSPYSYSQ; cyclic, DPro-Pro template; (5)..(5) D-amino acid)	–	about 40%
